In the supplement of paper PMC12819154, “High-throughput peptide-centric local stability assay extends protein–ligand identification to membrane proteins, tissues and bacteria” (Nature Structural & Molecular Biology, 2025) one finds log2 fold change data, which are given here for 40 targets.

Chains of the proteins cited; added tags and fusions are not shown. Lines headed by an entry give the natural chain unless they say otherwise; changes in a name come on top.
UniProt Q9EQK5, whole entry: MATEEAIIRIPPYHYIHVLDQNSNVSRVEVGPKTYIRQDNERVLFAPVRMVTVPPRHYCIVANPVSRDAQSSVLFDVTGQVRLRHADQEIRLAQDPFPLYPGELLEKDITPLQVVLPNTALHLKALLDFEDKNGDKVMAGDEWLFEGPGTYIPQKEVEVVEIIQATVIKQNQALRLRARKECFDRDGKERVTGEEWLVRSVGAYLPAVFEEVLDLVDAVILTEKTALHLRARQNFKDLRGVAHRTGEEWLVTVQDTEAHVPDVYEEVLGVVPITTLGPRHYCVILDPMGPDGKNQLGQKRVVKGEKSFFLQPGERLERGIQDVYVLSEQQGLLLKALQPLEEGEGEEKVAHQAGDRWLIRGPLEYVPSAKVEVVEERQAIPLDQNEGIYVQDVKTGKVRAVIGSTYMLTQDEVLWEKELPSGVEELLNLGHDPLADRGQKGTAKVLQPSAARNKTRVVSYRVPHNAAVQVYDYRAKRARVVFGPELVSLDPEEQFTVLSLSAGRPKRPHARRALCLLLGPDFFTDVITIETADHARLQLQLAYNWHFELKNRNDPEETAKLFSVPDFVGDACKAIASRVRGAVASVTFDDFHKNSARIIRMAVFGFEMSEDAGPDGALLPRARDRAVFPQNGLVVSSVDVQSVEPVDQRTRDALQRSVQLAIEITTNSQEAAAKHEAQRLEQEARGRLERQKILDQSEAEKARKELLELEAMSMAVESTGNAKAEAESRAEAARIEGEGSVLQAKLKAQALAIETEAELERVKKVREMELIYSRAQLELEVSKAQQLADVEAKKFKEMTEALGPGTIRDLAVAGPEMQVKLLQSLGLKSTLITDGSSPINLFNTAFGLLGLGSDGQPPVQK
UniProt Q9DC29: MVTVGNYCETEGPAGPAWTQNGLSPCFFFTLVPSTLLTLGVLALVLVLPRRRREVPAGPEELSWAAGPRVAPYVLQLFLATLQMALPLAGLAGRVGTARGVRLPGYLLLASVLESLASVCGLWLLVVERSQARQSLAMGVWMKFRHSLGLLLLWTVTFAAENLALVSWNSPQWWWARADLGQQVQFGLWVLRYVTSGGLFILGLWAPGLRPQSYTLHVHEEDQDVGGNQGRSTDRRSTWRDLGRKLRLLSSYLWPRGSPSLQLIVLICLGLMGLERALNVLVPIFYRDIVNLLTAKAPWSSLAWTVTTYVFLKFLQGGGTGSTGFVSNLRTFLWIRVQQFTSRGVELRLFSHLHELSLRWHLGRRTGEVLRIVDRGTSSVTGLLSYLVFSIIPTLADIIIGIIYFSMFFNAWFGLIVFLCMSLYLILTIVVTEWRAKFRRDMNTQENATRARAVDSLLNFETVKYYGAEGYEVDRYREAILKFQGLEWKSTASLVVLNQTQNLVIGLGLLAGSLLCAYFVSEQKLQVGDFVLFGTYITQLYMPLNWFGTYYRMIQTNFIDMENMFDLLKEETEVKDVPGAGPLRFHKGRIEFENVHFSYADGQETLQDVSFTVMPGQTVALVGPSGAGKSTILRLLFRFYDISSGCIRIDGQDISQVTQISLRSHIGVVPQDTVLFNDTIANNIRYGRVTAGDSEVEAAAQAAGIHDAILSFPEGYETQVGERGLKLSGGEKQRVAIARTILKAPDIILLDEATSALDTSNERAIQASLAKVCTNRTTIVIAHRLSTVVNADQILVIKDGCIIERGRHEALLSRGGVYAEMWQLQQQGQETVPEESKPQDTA
UniProt Q9ER00: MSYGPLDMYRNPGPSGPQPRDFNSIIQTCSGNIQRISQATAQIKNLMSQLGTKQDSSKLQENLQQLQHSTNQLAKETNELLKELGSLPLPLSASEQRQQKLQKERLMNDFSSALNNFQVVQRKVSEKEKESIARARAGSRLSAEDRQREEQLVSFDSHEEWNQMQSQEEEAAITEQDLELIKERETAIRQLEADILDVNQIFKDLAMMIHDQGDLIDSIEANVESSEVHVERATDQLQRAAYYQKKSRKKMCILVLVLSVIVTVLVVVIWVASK
UniProt Q9EQ80: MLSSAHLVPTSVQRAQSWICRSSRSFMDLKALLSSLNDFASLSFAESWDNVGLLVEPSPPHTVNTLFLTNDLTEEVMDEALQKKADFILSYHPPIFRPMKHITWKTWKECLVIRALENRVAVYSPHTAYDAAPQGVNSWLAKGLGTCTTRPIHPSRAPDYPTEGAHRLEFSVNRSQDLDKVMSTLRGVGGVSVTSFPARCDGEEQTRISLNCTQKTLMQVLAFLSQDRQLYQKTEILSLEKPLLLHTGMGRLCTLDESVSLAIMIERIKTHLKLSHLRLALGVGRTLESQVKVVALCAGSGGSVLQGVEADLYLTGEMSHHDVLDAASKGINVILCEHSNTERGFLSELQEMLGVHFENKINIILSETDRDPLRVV
UniProt Q9DCM0: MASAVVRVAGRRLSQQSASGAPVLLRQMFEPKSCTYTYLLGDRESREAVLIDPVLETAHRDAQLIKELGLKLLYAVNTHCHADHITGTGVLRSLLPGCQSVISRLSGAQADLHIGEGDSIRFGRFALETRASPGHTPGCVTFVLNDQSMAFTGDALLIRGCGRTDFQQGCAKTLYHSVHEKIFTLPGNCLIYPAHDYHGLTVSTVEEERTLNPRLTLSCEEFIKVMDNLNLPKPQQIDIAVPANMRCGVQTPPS
UniProt Q9ER69: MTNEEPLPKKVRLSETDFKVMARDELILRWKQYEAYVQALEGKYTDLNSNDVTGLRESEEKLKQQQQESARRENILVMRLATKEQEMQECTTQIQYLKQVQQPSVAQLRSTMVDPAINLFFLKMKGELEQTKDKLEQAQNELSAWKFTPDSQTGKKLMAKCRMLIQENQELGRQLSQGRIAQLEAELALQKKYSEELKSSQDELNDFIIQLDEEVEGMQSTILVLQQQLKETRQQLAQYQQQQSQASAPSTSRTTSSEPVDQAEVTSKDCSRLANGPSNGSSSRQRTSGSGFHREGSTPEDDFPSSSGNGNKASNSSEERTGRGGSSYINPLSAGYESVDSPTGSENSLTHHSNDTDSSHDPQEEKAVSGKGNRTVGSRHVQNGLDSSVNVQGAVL
UniProt Q9DBA6: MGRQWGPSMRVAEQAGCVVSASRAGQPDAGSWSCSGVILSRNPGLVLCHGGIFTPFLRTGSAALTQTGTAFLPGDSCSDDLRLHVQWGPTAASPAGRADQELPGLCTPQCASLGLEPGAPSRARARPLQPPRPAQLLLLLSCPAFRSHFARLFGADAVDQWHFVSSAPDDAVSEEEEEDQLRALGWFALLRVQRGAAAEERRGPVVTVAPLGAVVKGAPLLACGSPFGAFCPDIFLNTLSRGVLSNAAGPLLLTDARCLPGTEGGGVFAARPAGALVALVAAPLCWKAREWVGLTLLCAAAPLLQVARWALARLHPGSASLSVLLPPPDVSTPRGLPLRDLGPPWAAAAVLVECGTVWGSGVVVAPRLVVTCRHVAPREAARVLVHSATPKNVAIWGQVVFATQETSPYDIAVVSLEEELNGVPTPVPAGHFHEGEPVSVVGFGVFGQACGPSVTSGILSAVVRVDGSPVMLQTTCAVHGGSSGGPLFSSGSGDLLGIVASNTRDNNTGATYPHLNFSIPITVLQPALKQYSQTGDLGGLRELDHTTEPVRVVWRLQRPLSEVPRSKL
UniProt Q9DBY1, whole entry: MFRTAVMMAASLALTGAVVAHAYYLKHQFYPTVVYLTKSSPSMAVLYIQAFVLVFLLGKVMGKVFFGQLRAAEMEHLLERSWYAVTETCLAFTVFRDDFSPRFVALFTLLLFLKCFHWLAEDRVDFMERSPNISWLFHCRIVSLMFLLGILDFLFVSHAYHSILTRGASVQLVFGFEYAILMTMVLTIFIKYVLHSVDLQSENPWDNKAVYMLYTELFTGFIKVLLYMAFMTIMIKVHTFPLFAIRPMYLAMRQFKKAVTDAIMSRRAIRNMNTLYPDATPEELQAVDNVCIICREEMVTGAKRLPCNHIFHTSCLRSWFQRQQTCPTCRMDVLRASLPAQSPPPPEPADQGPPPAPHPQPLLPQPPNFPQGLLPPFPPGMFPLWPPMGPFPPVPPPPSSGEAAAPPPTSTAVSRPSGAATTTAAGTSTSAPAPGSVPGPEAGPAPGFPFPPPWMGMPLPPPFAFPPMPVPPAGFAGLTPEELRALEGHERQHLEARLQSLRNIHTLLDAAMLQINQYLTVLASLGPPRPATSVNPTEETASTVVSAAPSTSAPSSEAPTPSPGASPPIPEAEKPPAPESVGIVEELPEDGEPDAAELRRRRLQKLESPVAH
UniProt Q9DC04: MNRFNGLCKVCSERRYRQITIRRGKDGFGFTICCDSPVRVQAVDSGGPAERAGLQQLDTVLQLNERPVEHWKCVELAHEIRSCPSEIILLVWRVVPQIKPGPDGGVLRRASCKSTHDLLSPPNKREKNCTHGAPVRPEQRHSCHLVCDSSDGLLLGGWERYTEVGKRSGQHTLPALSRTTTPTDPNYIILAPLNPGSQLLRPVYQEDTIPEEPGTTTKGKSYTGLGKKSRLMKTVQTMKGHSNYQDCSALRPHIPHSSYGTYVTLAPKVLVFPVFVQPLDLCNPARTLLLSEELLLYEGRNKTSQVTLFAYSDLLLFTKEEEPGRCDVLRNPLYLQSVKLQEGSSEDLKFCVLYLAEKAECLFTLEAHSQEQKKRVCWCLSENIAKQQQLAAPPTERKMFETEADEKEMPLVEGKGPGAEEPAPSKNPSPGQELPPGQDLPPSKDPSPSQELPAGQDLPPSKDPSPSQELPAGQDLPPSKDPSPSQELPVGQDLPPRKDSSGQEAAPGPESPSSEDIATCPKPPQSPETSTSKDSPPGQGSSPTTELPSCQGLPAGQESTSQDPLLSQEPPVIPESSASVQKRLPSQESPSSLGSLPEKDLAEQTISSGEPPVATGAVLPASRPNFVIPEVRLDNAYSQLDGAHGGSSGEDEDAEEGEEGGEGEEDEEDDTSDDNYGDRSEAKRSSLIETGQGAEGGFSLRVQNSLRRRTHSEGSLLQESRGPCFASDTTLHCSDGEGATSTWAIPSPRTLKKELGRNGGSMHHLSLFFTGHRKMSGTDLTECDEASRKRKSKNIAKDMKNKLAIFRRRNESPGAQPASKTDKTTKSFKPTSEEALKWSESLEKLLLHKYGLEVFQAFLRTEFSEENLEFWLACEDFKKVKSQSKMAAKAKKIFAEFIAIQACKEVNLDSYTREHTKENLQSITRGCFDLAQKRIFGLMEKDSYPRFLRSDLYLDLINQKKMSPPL
UniProt Q9EP96: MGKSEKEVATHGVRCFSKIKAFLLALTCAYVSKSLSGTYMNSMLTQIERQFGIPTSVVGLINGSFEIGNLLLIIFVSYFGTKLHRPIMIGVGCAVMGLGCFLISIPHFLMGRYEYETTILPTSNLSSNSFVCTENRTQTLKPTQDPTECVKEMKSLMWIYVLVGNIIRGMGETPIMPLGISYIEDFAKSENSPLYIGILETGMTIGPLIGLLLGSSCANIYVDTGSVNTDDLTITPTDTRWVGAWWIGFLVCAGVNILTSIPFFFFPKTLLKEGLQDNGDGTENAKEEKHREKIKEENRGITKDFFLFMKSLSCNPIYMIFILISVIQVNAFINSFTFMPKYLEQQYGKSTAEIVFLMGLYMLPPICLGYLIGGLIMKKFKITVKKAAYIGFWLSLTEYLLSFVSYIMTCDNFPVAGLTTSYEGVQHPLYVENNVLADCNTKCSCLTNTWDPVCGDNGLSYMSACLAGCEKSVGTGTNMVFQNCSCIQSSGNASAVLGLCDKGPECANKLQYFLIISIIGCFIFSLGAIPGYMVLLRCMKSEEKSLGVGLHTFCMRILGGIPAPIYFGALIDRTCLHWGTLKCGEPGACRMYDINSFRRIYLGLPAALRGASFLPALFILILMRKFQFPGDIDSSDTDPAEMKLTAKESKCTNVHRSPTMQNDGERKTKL
UniProt Q9DBZ9, whole entry: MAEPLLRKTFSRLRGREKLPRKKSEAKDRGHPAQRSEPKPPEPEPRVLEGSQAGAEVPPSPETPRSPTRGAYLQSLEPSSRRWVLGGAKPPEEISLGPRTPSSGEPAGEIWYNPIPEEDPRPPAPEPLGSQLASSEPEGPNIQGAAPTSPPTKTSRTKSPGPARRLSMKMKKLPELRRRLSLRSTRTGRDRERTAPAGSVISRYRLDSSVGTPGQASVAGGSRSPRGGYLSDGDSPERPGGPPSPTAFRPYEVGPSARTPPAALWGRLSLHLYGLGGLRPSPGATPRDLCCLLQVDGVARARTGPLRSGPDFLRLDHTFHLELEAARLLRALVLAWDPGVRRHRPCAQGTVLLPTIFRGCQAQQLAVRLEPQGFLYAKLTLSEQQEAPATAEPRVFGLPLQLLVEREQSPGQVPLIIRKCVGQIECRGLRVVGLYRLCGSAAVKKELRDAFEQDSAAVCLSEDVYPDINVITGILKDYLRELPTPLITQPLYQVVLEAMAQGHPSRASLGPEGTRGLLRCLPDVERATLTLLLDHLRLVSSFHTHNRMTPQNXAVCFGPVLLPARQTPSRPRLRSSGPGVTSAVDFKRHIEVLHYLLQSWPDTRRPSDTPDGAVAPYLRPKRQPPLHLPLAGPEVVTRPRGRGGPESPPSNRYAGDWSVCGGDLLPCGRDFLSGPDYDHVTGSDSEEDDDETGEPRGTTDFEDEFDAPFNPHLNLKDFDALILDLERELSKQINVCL

The list shows a part of the results. Most entries show no effect beyond the scatter of the controls.

Compound in this assay: CN[C@@H]1C[C@H]2O[C@@](C)([C@@H]1OC)n1c3ccccc3c3c4c(c5c6ccccc6n2c5c31)C(=O)NC4 [staurosporine]
Put plainly: log2 fold change of tryptic peptide abundance, ligand vs vehicle (limited proteolysis) (log2 ratio); higher = more trypsin-susceptible (destabilized). Conditions: ligand concentration: 20 uM; sample: mouse liver crude lysate; replicate design: treated separately.
Regarding “UniProt Q9EPQ8 (peptide sequence: ESFGSAVPR, peptide start residue: 740)”, the log2 fold change worked out at 0.395.
Turning to “UniProt Q9EQH3 (peptide sequence: KDILKDLVEMCR, peptide start residue: 127)”, the log2 fold change amounted to 0.429.
Take “UniProt Q9EQK5 (peptide sequence: LLQSLGLK, peptide start residue: 821)”: the log2 fold change was -0.171.
With “UniProt Q9DB28 (peptide sequence: QLLILLQNCTDEGEREAIKK, peptide start residue: 121)”, the log2 fold change was -0.142.
As for “UniProt Q9DAU1 (peptide sequence: LIEVTETICKRLLDYSLHK, peptide start residue: 96)”, the log2 fold change was -0.21.
Take “UniProt Q9DBB4 (peptide sequence: HNATSLQHLLAGAK, peptide start residue: 756)”: the log2 fold change was -0.44.
Next, “UniProt Q9DBS2 (peptide sequence: QTLWPLNVHDPTRR, peptide start residue: 38)”: 0.0488; “UniProt Q9DCX2 (peptide sequence: ANVAKPGLVDDFEK, peptide start residue: 59)”: -0.318.
Next, “UniProt Q9DCG9 (peptide sequence: MKLLTHNLLSSHVR, peptide start residue: 1)”: -0.4; “UniProt Q9DB96 (peptide sequence: EQYSDAPEEIRDAR, peptide start residue: 211)”: 0.335.
As for “UniProt Q9EPB5 (peptide sequence: NIEHTLQVEASQK, peptide start residue: 147)”, the log2 fold change turned out to be 0.34.
Next, “UniProt Q9DC29 (peptide sequence: LFSHLHELSLR, peptide start residue: 349)”: 0.107.
Take “UniProt Q9EP52 (peptide sequence: STVEELHEPIPSLFR, peptide start residue: 90)”: the log2 fold change is -0.302.
Turning to “UniProt Q9DCY0 (peptide sequence: VYGTVFHINQGNPFK, peptide start residue: 27)”, the log2 fold change is -0.442.
Take “UniProt Q9DCN7 (peptide sequence: STEGSLHPGDVHIQINSGPK, peptide start residue: 29)”: the log2 fold change stood at 0.165.
Regarding “UniProt Q9ER00 (peptide sequence: AAYYQKK, peptide start residue: 240)”, the log2 fold change was found to be 0.817.
Next, “UniProt Q9DCN2 (peptide sequence: MSQYLENMK, peptide start residue: 127)”: -0.639; “UniProt Q9EQ80 (peptide sequence: KADFILSYHPPIFRPMK, peptide start residue: 84)”: 0.345.
“UniProt Q9EP73 (peptide sequence: MLDVEKCGVEDTSSK, peptide start residue: 266)”: the log2 fold change is -0.119.
For the target “UniProt Q9ER35 (peptide sequence: AQLHTTTLR, peptide start residue: 7)”, the log2 fold change was found to be 0.0666.
Next, “UniProt Q9DAP0 (peptide sequence: DLEQELHQHQER, peptide start residue: 208)”: -0.238; “UniProt Q9ER71 (peptide sequence: EKPLTYEHGVK, peptide start residue: 152)”: 0.646.
“UniProt Q9DBQ9 (peptide sequence: QHLQSHQMSLNLAR, peptide start residue: 269)”: the log2 fold change was 0.593.
Regarding “UniProt Q9DCM0 (peptide sequence: LLYAVNTHCHADHITGTGVLR, peptide start residue: 72)”, the log2 fold change was -0.273.
On to “UniProt Q9ER69 (peptide sequence: LANGPSNGSSSR, peptide start residue: 273)”, for which the log2 fold change was -0.526.
For the target “UniProt Q9EQH4 (peptide sequence: TPTYREPVSDYQILR, peptide start residue: 160)”, the log2 fold change is -0.258.
Take “UniProt Q9DC33 (peptide sequence: YLDEADRDKER, peptide start residue: 151)”: the log2 fold change came out at 0.194.
For the target “UniProt Q9DCX1 (peptide sequence: AWLATEAR, peptide start residue: 115)”, the log2 fold change came out at 0.0676.
The result for “UniProt Q9DBA6 (peptide sequence: LHVQWGPTAASPAGR, peptide start residue: 83)” reads -0.25.
The result for “UniProt Q9EQU5 (peptide sequence: LRQPFFQK, peptide start residue: 75)” reads 0.289.
Regarding “UniProt Q9DB34 (peptide sequence: KTPEELLR, peptide start residue: 9)”, the log2 fold change is 0.164.
In the case of “UniProt Q9EP97 (peptide sequence: TITYFDSQR, peptide start residue: 471)”, the log2 fold change was -0.233.
The result for “UniProt Q9DCJ9 (peptide sequence: FINYVIK, peptide start residue: 252)” reads 0.327; that for “UniProt Q9DBY1 (peptide sequence: EEMVTGAK, peptide start residue: 296)”, -0.314.
Regarding “UniProt Q9DC04 (peptide sequence: KMSGTDLTECDEASR, peptide start residue: 774)”, the log2 fold change is -0.366.
As for “UniProt Q9DCI3 (peptide sequence: DIHSINPAQLMAR, peptide start residue: 24)”, the log2 fold change is -0.0538.
Consider “UniProt Q9EP96 (peptide sequence: SPTMQNDGER, peptide start residue: 657)”, for which the log2 fold change was -0.148.
For “UniProt Q9EPX2 (peptide sequence: EGQDPNLSSAGR, peptide start residue: 591)”, the log2 fold change is -0.442.
Turning to “UniProt Q9DBZ9 (peptide sequence: RQPPLHLPLAGPEVVTRPR, peptide start residue: 622)”, the log2 fold change was 0.185.
“UniProt Q9ERH7 (peptide sequence: GTNEIVAIK, peptide start residue: 218)”: the log2 fold change was -0.619.
